The source of these data is patent US20050255501.

The target in this series is p53 (Homo sapiens) (UniProt P04637). In words: binding assay. Particulars: ChIP-GIS ditag cluster (5 unique ditags) in HCT116 cells after 5-FU; motif within 153 bp peak region; putative site; protein in cells.

For at least one entry, the source does not settle the construct or the ends of the probe. At least one result comes from cells or an extract, where the contact may be indirect.

For the sequence “AGACAAGCCCGGGCAAGGCC (double strand) [novel cluster p53 motif near p21]”, the binding result is given as “binds”.
